According to publication doi:10.1101/2024.08.13.24311780:
These are yes or no findings as the source states them, for the method shown. Binding seen in cells or lysates may run through a third protein. Binding can be weak; no strength is given. Sequences can lack the tags named with a protein.

B1: endogenous NDP52 (protein, UniProt Q13137 1-446)
chain: MEETIKDPPTSAVLLDHCHFSQVIFNSVEKFYIPGGDVTCHYTFTQHFIPRRKDWIGIFRVGWKTTREYYTFMWVTLPIDLNNKSAKQQEVQFKAYYLPKDDEYYQFCYVDEDGVVRGASIPFQFRPENEEDILVVTTQGEVEEIEQHNKELCKENQELKDSCISLQKQNSDMQAELQKKQEELETLQSINKKLELKVKEQKDYWETELLQLKEQNQKMSSENEKMGIRVDQLQAQLSTQEKEMEKLVQGDQDKTEQLEQLKKENDHLFLSLTEQRKDQKKLEQTVEQMKQNETTAMKKQQELMDENFDLSKRLSENEIICNALQRQKERLEGENDLLKRENSRLLSYMGLDFNSLPYQVPTSDEGGARQNPGLAYGNPYSGIQESSSPSPLSIKKCPICKADDICDHTLEQQQMQPLCFNCPICDKIFPATEKQIFEDHVFCHSL
B2: FLAG-NDP52^WT (protein, UniProt Q13137 1-446)
chain: MEETIKDPPTSAVLLDHCHFSQVIFNSVEKFYIPGGDVTCHYTFTQHFIPRRKDWIGIFRVGWKTTREYYTFMWVTLPIDLNNKSAKQQEVQFKAYYLPKDDEYYQFCYVDEDGVVRGASIPFQFRPENEEDILVVTTQGEVEEIEQHNKELCKENQELKDSCISLQKQNSDMQAELQKKQEELETLQSINKKLELKVKEQKDYWETELLQLKEQNQKMSSENEKMGIRVDQLQAQLSTQEKEMEKLVQGDQDKTEQLEQLKKENDHLFLSLTEQRKDQKKLEQTVEQMKQNETTAMKKQQELMDENFDLSKRLSENEIICNALQRQKERLEGENDLLKRENSRLLSYMGLDFNSLPYQVPTSDEGGARQNPGLAYGNPYSGIQESSSPSPLSIKKCPICKADDICDHTLEQQQMQPLCFNCPICDKIFPATEKQIFEDHVFCHSL
B3: FLAG-NDP52^GE (protein, UniProt Q13137 1-446)
chain: MEETIKDPPTSAVLLDHCHFSQVIFNSVEKFYIPGGDVTCHYTFTQHFIPRRKDWIGIFRVGWKTTREYYTFMWVTLPIDLNNKSAKQQEVQFKAYYLPKDDEYYQFCYVDEDGVVRGASIPFQFRPENEEDILVVTTQEEVEEIEQHNKELCKENQELKDSCISLQKQNSDMQAELQKKQEELETLQSINKKLELKVKEQKDYWETELLQLKEQNQKMSSENEKMGIRVDQLQAQLSTQEKEMEKLVQGDQDKTEQLEQLKKENDHLFLSLTEQRKDQKKLEQTVEQMKQNETTAMKKQQELMDENFDLSKRLSENEIICNALQRQKERLEGENDLLKRENSRLLSYMGLDFNSLPYQVPTSDEGGARQNPGLAYGNPYSGIQESSSPSPLSIKKCPICKADDICDHTLEQQQMQPLCFNCPICDKIFPATEKQIFEDHVFCHSL

molecular target: endogenous TAU (human (endogenous in SH-SY5Y)); assay: proximity ligation

For B1, which binding is on record?
The binding was “binds”.

B2 was tested. Which binding did it give?
The binding was “binds”.

With B3 as the binder, how does the binding read?
The binding was “binds”.
